According to patent US20190117751A1 (SAPPORO MEDICAL UNIVERSITY, published 2019):
These are yes or no findings as the source states them, for the method shown. A result given as binding can be weak or reduced; the word gives no strength.

Biological target: HLA-A24 molecule on the cell surface (HLA-A*2402) (human)
Experiment: not clear: FIG. 8 has no binding assay panel

Binder: VYTYIQSRF [DYRK4-derived natural peptide of SEQ ID No: 5 (…)]
- binding: binds
